Source: PMC6943125
No constants are given. Whether binding was seen depends on the method and setting. In cells and extracts the contact can be indirect. Tags and fused reporters may be left off the sequences shown.

molecular target: T1, GST-DHX30 (human) (UniProt Q7L2E3); assay: pull-down
T1 sequence: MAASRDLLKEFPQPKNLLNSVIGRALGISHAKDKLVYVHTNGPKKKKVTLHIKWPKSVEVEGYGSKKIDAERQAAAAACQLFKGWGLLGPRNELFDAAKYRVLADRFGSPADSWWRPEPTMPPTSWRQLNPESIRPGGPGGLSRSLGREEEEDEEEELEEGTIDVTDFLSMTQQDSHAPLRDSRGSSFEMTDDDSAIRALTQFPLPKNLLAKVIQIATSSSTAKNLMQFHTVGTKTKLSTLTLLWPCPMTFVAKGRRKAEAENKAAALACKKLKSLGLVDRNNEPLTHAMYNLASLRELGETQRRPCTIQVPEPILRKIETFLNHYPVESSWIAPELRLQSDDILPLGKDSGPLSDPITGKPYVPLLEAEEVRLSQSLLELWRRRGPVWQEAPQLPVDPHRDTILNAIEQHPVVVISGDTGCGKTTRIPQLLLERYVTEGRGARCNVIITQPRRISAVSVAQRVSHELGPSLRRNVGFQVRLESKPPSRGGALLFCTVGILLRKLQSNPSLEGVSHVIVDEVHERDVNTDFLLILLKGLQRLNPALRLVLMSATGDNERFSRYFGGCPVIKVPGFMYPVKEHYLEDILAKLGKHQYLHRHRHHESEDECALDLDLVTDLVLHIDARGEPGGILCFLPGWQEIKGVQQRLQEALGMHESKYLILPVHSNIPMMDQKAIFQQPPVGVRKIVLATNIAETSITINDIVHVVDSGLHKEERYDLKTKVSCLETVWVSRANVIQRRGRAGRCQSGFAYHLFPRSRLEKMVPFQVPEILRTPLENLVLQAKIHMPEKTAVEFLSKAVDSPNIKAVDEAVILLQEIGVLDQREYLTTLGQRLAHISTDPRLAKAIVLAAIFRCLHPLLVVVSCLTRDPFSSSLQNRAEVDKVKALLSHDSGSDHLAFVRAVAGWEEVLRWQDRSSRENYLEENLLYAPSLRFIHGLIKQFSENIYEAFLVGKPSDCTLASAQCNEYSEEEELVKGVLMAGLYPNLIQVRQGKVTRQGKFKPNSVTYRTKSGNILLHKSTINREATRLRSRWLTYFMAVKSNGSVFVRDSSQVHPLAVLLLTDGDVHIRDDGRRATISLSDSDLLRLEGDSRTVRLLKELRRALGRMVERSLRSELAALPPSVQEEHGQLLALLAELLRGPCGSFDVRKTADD

Row | Substance | binding
1 | NP (nucleoprotein) of Ud virus (influenza A virus (Ud virus)) | no binding
2 | PB2 viral polymerase subunit of Ud virus (influenza A virus (Ud virus)) | no binding
3 | PB1 viral polymerase subunit of Ud virus (influenza A virus (Ud virus)) | no binding
4 | PA viral polymerase subunit of Ud virus (influenza A virus (Ud virus)) | no binding
5 | M1 (matrix protein) of Ud virus (influenza A virus (Ud virus)) | no binding
